No constants are given. Whether binding was seen depends on the method and setting. In cells and extracts the contact can be indirect. Some binding calls cover weakened binding; strength is not graded here. Sequences can lack the tags named with a protein. Each block holds one binder with its values, some of them ahead of it.
Target: T1, 3 × Flag-HOMER3 (human) (UniProt Q9NSC5)
T1 sequence: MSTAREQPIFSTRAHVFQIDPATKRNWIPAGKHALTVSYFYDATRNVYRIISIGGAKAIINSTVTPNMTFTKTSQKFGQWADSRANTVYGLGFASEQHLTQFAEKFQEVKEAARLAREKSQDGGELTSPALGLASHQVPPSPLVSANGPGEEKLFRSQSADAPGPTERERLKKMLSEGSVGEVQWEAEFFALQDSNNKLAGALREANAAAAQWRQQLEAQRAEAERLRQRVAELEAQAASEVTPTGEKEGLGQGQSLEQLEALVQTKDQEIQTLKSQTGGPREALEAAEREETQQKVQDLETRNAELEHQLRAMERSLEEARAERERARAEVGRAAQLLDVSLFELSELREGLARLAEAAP
Experiment: co-IP; anti-Flag immunoprecipitation (anti-Flag antibody, protein A agarose / flag-beads, overnight at 4 °C) from extracts of H1299 cells overexpressing 3xFlag-HOMER3 and of control cells; washed with lysis buffer; Western blotting

binding: binds
B1: SNW domain-containing protein 1 (SNW1) (protein, UniProt Q13573 1-536)
chain: MALTSFLPAPTQLSQDQLEAEEKARSQRSRQTSLVSSRREPPPYGYRKGWIPRLLEDFGDGGAFPEIHVAQYPLDMGRKKKMSNALAIQVDSEGKIKYDAIARQGQSKDKVIYSKYTDLVPKEVMNADDPDLQRPDEEAIKEITEKTRVALEKSVSQKVAAAMPVRAADKLAPAQYIRYTPSQQGVAFNSGAKQRVIRMVEMQKDPMEPPRFKINKKIPRGPPSPPAPVMHSPSRKMTVKEQQEWKIPPCISNWKNAKGYTIPLDKRLAADGRGLQTVHINENFAKLAEALYIADRKAREAVEMRAQVERKMAQKEKEKHEEKLREMAQKARERRAGIKTHVEKEDGEARERDEIRHDRRKERQHDRNLSRAAPDKRSKLQRNENRDISEVIALGVPNPRTSNEVQYDQRLFNQSKGMDSGFAGGEDEIYNVYDQAWRGGKDMAQSIYRPSKNLDKDMYGDDLEARIKTNRFVPDKEFSGSDRRQRGREGPVQFEEDPFGLDKFLEEAKQHGGSKRPSDSSRPKEHEHEGKKRRKE

binding: binds
B2: Platelet-activating factor acetylhydrolase IB subunit alpha1 (PAFAH1B3) (protein, UniProt Q15102 1-231)
chain: MSGEENPASKPTPVQDVQGDGRWMSLHHRFVADSKDKEPEVVFIGDSLVQLMHQCEIWRELFSPLHALNFGIGGDGTQHVLWRLENGELEHIRPKIVVVWVGTNNHGHTAEQVTGGIKAIVQLVNERQPQARVVVLGLLPRGQHPNPLREKNRQVNELVRAALAGHPRAHFLDADPGFVHSDGTISHHDMYDYLHLSRLGYTPVCRALHSLLLRLLAQDQGQGAPLLEPAP

— paper PMC10713516
